The values below come from paper PMC7819943, “Rice protein-binding microarrays: a tool to detect cis-acting elements near promoter regions in rice”.

Some of the results follow.

The assay has as its target T1, OsSMF1 (Oryza sativa, UniProt Q6ZLB0 1-436).
T1 sequence: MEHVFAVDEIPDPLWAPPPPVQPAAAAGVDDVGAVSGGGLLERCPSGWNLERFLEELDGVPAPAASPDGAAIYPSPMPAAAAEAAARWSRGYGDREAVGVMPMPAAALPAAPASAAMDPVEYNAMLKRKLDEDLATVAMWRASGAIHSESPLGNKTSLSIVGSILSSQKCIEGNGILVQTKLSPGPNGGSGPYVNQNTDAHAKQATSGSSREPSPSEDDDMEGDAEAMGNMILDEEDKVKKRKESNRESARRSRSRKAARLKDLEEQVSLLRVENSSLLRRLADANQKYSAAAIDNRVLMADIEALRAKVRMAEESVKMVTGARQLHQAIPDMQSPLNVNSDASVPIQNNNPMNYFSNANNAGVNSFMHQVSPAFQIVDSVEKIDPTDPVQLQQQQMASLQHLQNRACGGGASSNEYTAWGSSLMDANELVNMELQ
Put plainly: protein-binding microarray (RPBM); PBS, 2% BSA, 51.3 ng/ul salmon testes DNA, 50 uM zinc acetate, 200 nM TF, 25 C, 1 h; high values mean tight binding. Particulars: protein: recombinant; tags: N-terminal polyhistidine and DsRed monomer fusion (pET32a); chain copies: 2; label: CyDye5-dUTP incorporated in the synthesized complementary strand; 3' TTTTT single-stranded linker to array surface; dsDNA, one strand shown. Summed up: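 An Axon 4000B scanner gave the binding signal as per-feature fluorescence intensity in arbitrary units. This followed washing of a custom Agilent array that had been incubated for 1 h at 25 °C with 200 nM protein in PBS, 2% BSA, salmon testes DNA and 50 µM zinc acetate. The proteins were transcription factors fused at the N-terminus to polyhistidine and DsRed, expressed in E. coli BL21-CodonPlus and purified on Ni–NTA.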
On to “TTTTCCGCGATTCAGCCACGTACACGCACCGTCCCCTTCCCGGAGTCACCTAGTGCAG”, for which the binding signal is 8710 fluorescence intensity (a.u.). As to “AAACGAAGATTAAAGGTTGATAAAAGGCCTATTTAGATCTCGGAGTCACCTAGTGCAG”, the binding signal was 25000 fluorescence intensity (a.u.). Under “TGTGCGGATGGCGTCATTGCTTAGCTTAGCAATAGCATCGCGGAGTCACCTAGTGCAG” stands 8240 fluorescence intensity (a.u.); under “ATGCCATTGATTCAATAGTGAATCATCGTTCTTTCTGGATCGGAGTCACCTAGTGCAG”, 3550 fluorescence intensity (a.u.).

Regarding “CCGCCGCTGGCGTGTCGAGCTCTGTCTCCAACTCCTCGCCCGGAGTCACCTAGTGCAG”, the binding signal is 6370 fluorescence intensity (a.u.). Under “TATCTAGCTATCTATCAGCTGCCTTCCATCGTCAGCACACCGGAGTCACCTAGTGCAG” stands 8570 fluorescence intensity (a.u.). “ACCGTGTGGGTATGGTGTGCGTGTGTAGTGGTGTTTGTGCCGGAGTCACCTAGTGCAG”: the binding signal was 3860 fluorescence intensity (a.u.). As for “GGGAAAGGATATGAGTAGGCGCTGACATATTGGCTTCACACGGAGTCACCTAGTGCAG”, the figure is 3220 fluorescence intensity (a.u.); as for “TTACCAAACTGGAAATTTCGTGGTGTTACAAAATAGGACACGGAGTCACCTAGTGCAG”, 3280 fluorescence intensity (a.u.).

“GGTGATTCTGTGCTGTTGATGATGTTTTCTCTGAAGATTCCGGAGTCACCTAGTGCAG”: the binding signal was 3850 fluorescence intensity (a.u.). On to “TAACTGTTATGCTGTGGTATGATGGCTTGTACATTGCGTACGGAGTCACCTAGTGCAG”, for which the binding signal is 3230 fluorescence intensity (a.u.). Under “CGATCCAAACCCTCGACTGGGGCCCACATGTCAGCGACCACGGAGTCACCTAGTGCAG” stands 3570 fluorescence intensity (a.u.); under “ATCCCTGAAATTACAGCGGTGGACGTCATGACACACTTATCGGAGTCACCTAGTGCAG”, 3860 fluorescence intensity (a.u.); under “CCTCCACACAAACATAAATCTGATGTGGTAACTTGTATAGCGGAGTCACCTAGTGCAG”, 5260 fluorescence intensity (a.u.).

As to “GCCCTTCGGCGTACGGCAGCGCCATGACACCCGGTGGACCCGGAGTCACCTAGTGCAG”, the binding signal was 3770 fluorescence intensity (a.u.). Under “ACATAGATGGACCCATTTGTCATCCACTCGGAGTGTCAAACGGAGTCACCTAGTGCAG” stands 3600 fluorescence intensity (a.u.).

“CCACACGAAACGGAAAGCGGTCGGGTTGGCATATATACGCCGGAGTCACCTAGTGCAG”: the binding signal is 4390 fluorescence intensity (a.u.). As for “ACAGCGTGTAGGGTAACTTTCCATGACACAGCTGCAGAGCCGGAGTCACCTAGTGCAG”, the figure is 3510 fluorescence intensity (a.u.). For the sequence “CTTTTCCTGTCAAGTGGTCTCATTTCTTTGACTCTTCGTCCGGAGTCACCTAGTGCAG”, the binding signal was 5340 fluorescence intensity (a.u.).

On to “GTGTCCCGGTGCCTTTTCCACGCCCACCGTTGCTAGCTACCGGAGTCACCTAGTGCAG”, for which the binding signal was 3790 fluorescence intensity (a.u.).

For the sequence “CGGCGCGCCGTGATTGTGCCTGATTGGGGTGGGGTTGGGGCGGAGTCACCTAGTGCAG”, the binding signal was 5710 fluorescence intensity (a.u.). As for “CTCTCCGCTGTCGGAGACGACGCGGCCACCAAACCCTAGCCGGAGTCACCTAGTGCAG”, the figure is 3490 fluorescence intensity (a.u.); as for “GTAAGACGAGGACAATTCAAACCATCCACGTAGGCATCACCGGAGTCACCTAGTGCAG”, 14800 fluorescence intensity (a.u.). As for “TACCACCACCCACTACCCTTCCCGCTCGGAATAGGAGGGGCGGAGTCACCTAGTGCAG”, the figure is 3330 fluorescence intensity (a.u.). Turning to “AAAATTCCACATCAAATATGTCATACTATATCCCTGATGACGGAGTCACCTAGTGCAG”, the binding signal was 3720 fluorescence intensity (a.u.). As for “AATCGTGCCATCGTCATCAAATCAGCAGAAGTACACACTCCGGAGTCACCTAGTGCAG”, the figure is 4890 fluorescence intensity (a.u.); as for “GCTATATTTAGAATATGACGCAATCTACGGGACACAAAACCGGAGTCACCTAGTGCAG”, 3630 fluorescence intensity (a.u.); as for “GCGGCGAGGTGGTGCCGCCGCACGTGCTGCTGGCGCGGCGCGGAGTCACCTAGTGCAG”, 3830 fluorescence intensity (a.u.). As to “AAAGCGGCGCACATGGGGCGAGCGAGGAGGGGTGCCACGTCGGAGTCACCTAGTGCAG”, the binding signal is 9280 fluorescence intensity (a.u.). Under “AAGTGTGTAGTTTGGTGAGCTACTAGTGTCACAGCGTGACCGGAGTCACCTAGTGCAG” stands 4950 fluorescence intensity (a.u.). On to “CCCCGCCACGTGTCGAGGTGGGCCCCACCAACGACCGGACCGGAGTCACCTAGTGCAG”, for which the binding signal was 7940 fluorescence intensity (a.u.). “TGTAGAGTGTGTGTGCGTGTTCATATGGGTTGGTGTATGTCGGAGTCACCTAGTGCAG”: the binding signal was 3790 fluorescence intensity (a.u.).

“TAAACGAGGCAACGTGTTCCTCGAGATCTTCAGAGCCAGGCGGAGTCACCTAGTGCAG”: the binding signal was 4060 fluorescence intensity (a.u.). As to “TGGTCCCAACCTTTTCATACTTACGTGTCAGCTCTCAACACGGAGTCACCTAGTGCAG”, the binding signal was 14000 fluorescence intensity (a.u.). As for “TATAGTTGTGTACTAGTGTCACTCACGCCACCCGTCTCATCGGAGTCACCTAGTGCAG”, the figure is 3670 fluorescence intensity (a.u.). As for “TATATACCCAAAGAGAATCATTGATACGTCGTCACACATACGGAGTCACCTAGTGCAG”, the figure is 4310 fluorescence intensity (a.u.). Under “TAAAAGAAAATAGGATATATGAGGTGGATTTTGTGCACACCGGAGTCACCTAGTGCAG” stands 4400 fluorescence intensity (a.u.); under “TTTCATGCGTTCCAAGTTGTCATTACTCCTTTGTACTCTCCGGAGTCACCTAGTGCAG”, 3240 fluorescence intensity (a.u.); under “CGGAATTGTTTCACTCGTTTAAATCGAGTGTTGTTTCACCCGGAGTCACCTAGTGCAG”, 12500 fluorescence intensity (a.u.). “TAAGAGCTATTGGAATACGTGTAATAAACCTTTTCGACTTCGGAGTCACCTAGTGCAG”: the binding signal was 3600 fluorescence intensity (a.u.). As for “TCCCTTGACGGTTTTGGCTGACGTGGCGCCTAGGTGGCTACGGAGTCACCTAGTGCAG”, the figure is 30000 fluorescence intensity (a.u.).

Turning to “AAAATAATGGGGCTCACATGGGTCCACATGTCGGTCTCACCGGAGTCACCTAGTGCAG”, the binding signal was 3190 fluorescence intensity (a.u.). Take “GCTCATCCATGATTCCACCGTGGCAGGAACTGCAGGTGTACGGAGTCACCTAGTGCAG”: the binding signal is 5780 fluorescence intensity (a.u.). With “CGAAGACAATTCAGCAGCAGTAACAATCATTTGAACCATACGGAGTCACCTAGTGCAG”, the binding signal was 37000 fluorescence intensity (a.u.).

In the case of “TTTTGACACCGTGATGGGCACCTCCCTACCATTGGGCCCTCGGAGTCACCTAGTGCAG”, the binding signal was 21700 fluorescence intensity (a.u.).

Consider “GCTCCTGCGCGGAGTCTCCGTGGACACCTCTCCTCCTCCCCGGAGTCACCTAGTGCAG”, for which the binding signal was 3670 fluorescence intensity (a.u.).

In the case of “ACAGGAAACACCTCATGACGGAGCAGTCACCAGTCAGCTGCGGAGTCACCTAGTGCAG”, the binding signal is 5000 fluorescence intensity (a.u.). As for “TTACTTCCATCGCAACGACATTGCTTGCTACGTCACATGCCGGAGTCACCTAGTGCAG”, the figure is 5980 fluorescence intensity (a.u.); as for “GCTGAGTTAGCTGCCACGTCAGCTAGGGGATCGGCCCGGCCGGAGTCACCTAGTGCAG”, 16100 fluorescence intensity (a.u.).

As for “GCAACCCAAATGGAGTACGCTACGTCGTCAGTCGCCACTACGGAGTCACCTAGTGCAG”, the binding signal is 3990 fluorescence intensity (a.u.).

For the sequence “GACGACCTCCGCCGGCTGCACCCGGACGTCACCATCGTGTCGGAGTCACCTAGTGCAG”, the binding signal was 3450 fluorescence intensity (a.u.). As for “CAAGCAGTCATATGAGTCAAGGAAGCAGATGACACAAACTCGGAGTCACCTAGTGCAG”, the figure is 3930 fluorescence intensity (a.u.); as for “GCGTCATCATGACATGCCACGTCAGCACATGGAGCGGGTTCGGAGTCACCTAGTGCAG”, 26100 fluorescence intensity (a.u.); as for “GAGGTTCAGGCAAAGGCATCTTGGTGACAGATTCCATCTGCGGAGTCACCTAGTGCAG”, 3710 fluorescence intensity (a.u.).
